Paper PMC7887190
Where a chain is given by its changes, count along the chain named. Names may count otherwise. These are yes or no findings as the source states them, for the method shown. In cells and extracts the contact can be indirect. Some results given as binding are weak or reduced against the parent protein; the word gives no strength. Blank lines part the entries; values can stand above or below the binder they belong to.

Chains of the proteins cited; added tags and fusions are not shown.
UniProt P67809: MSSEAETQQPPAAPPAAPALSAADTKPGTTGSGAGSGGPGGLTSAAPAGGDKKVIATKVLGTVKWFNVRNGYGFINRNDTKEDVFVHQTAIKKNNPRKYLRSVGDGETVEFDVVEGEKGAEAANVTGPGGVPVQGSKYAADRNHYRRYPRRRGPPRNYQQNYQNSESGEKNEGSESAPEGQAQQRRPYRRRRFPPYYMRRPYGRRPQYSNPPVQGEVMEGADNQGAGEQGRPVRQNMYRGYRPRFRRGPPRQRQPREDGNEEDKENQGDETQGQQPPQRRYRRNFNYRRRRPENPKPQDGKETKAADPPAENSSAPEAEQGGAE

Target: Y-box-binding protein-1 (YB1) (human (endogenous in MDA-MB-231)) (UniProt P67809)
Experiment: co-IP; lysates of WAVE3-deficient MDA-MB-231 cells stably expressing the WAVE3 constructs; immunoprecipitated with anti-YB1 and blotted with anti-WAVE3, and immunoprecipitated with anti-WAVE3 and blotted with anti-YB1

binding: binds
B1: wild-type WAVE3 (WASF3) (protein, UniProt Q9UPY6 1-502)
chain: MPLVKRNIEPRHLCRGALPEGITSELECVTNSTLAAIIRQLSSLSKHAEDIFGELFNEANNFYIRANSLQDRIDRLAVKVTQLDSTVEEVSLQDINMKKAFKSSTVQDQQVVSKNSIPNPVADIYNQSDKPPPLNILTPYRDDKKDGLKFYTDPSYFFDLWKEKMLQDTEDKRKEKRRQKEQKRIDGTTREVKKVRKARNRRQEWNMMAYDKELRPDNRLSQSVYHGASSEGSLSPDTRSHASDVTDYSYPATPNHSLHPQPVTPSYAAGDVPPHGPASQAAEHEYRPPSASARHMALNRPQQPPPPPPPQAPEGSQASAPMAPADYGMLPAQIIEYYNPSGPPPPPPPPVIPSAQTAFVSPLQMPMQPPFPASASSTHAAPPHPPSTGLLVTAPPPPGPPPPPPGPPGPGSSLSSSPMHGPPVAEAKRQEPAQPPISDARSDLLAAIRMGIQLKKVQEQREQEAKREPVGNDVATILSRRIAVEYSDSDDDSEFDENDWSD

binding: no binding
B2: phospho-mutant WAVE3 (W3-Y4F) (protein, UniProt Q9UPY6 1-502)
chain: B1 chain with Y151F, Y248F, Y337F, Y486F
